{"source": "PubChem BioAssay AID1508600", "about": "(Functional Genomics Laboratory (NCATS/FGL), 2020)", "note": "Among all 53,000 sequences or so, about 3,700 (7%) were called active.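 The calls were made as follows: active = gene knockdowns whose robust z-score for IL-1 alpha signal is at least 2 or at most -2, so actives lie on both sides; inactive = the rest.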 The list shows a part of the results.", "data": [{"assay": "Components of the Cytosolic LPS Sensing Pathway: Gene Identification via Genome-wide siRNA Screen;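 also: robust z of the log signal after scaling to non-targeting control siRNA wells of the plate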", "conditions": "RAW264.7 macrophages, IL-1a HTRF, actives lie on both sides, screened at 100 nM (by protocol), cells primed 5 h with Pam3CSK4 first", "procedure,_shortened": "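RAW264.7 mouse macrophages reverse-transfected with single siRNAs (100 nM final) for 48h, primed with Pam3CSK4 for 5 hours, then transfected with LipidA for 24 hour. Supernatant IL-1a read by HTRF; values normalized to negative-control median, log-transformed robust z-scores.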", "values": [{"sequence": "GGAGAUUGGCAUCCAGAACTT against Podxl2", "z-score": "inactive: 0.954"}, {"sequence": "CCGAAUGAUCACUCAAACUTT against Rbms1", "z-score": "inactive: 0.543"}, {"sequence": "CGAGUGUUAGAUGCUAAAATT against Lamc2", "z-score": "inactive: 1.32"}, {"sequence": "CCUCUUCUUGUUUCAAGGGTT against Piezo2", "z-score": "inactive: 0.062"}, {"sequence": "CGCGCCUGAAAAUGUUGAATT against Pdik1l", "z-score": "inactive: 0.0427"}, {"sequence": "GCGUGAGAUACCAUAUUAUTT against Bank1", "z-score": "inactive: -1.47"}, {"sequence": "CGGGAUCUAUCCACUGAUGTT against Nrbp2", "z-score": "inactive: -0.983"}, {"sequence": "GGUAUCAAAACAACAGUCCTT against Upk1b", "z-score": "inactive: -0.709"}, {"sequence": "GGAACAUGGCACUUUCGUGTT against Pcdh10", "z-score": "inactive: 0.905"}, {"sequence": "CGGGCAUAAAGGUUACAUATT against Hspa4", "z-score": "inactive: 1.01"}, {"sequence": "GCCCAUUAUGCAAGAAUAATT against Ppp1r17", "z-score": "inactive: -1.15"}, {"sequence": "GGUUCUGAUUUUUAGUGGUTT against Dnaaf6b", "z-score": "inactive: 1.11"}, {"sequence": "CUCUAUCUCAUUGCAGUCCTT against Olfr671", "z-score": "inactive: -0.0809"}, {"sequence": "GGGACAUUCCCUGAACUUCTT against Ccdc142", "z-score": "inactive: 0.306"}, {"sequence": "GGAGAAAUGUUGUUGUCUUTT against Kcng3", "z-score": "inactive: -0.327"}, {"sequence": "GGUGCCUGAGAUGCCCAAUTT against Defa-rs12", "z-score": "inactive: -0.117"}, {"sequence": "CGUUUUACCACCGUGUGCUTT against Gfra1", "z-score": "inactive: -0.284"}, {"sequence": "GGCAUUGAUCACUGACAGCTT against 9530077C05Rik", "z-score": "inactive: 0.827"}, {"sequence": "GCACUUAACAGAAUGAAUUTT against Alg2", "z-score": "inactive: 0.532"}, {"sequence": "ACGUAGGUUAACUGAACAUTT against Zscan26", "z-score": "inactive: -0.268"}, {"sequence": "CCAUGGAAUCUCCUAUACCTT against C4bp", "z-score": "inactive: -0.679"}, {"sequence": "GGACUCCCUGGAUUUCAGATT against Rapgef3", "z-score": "inactive: -1.34"}, {"sequence": "GGACCCUGAACAGACAACGTT against Get3", "z-score": "inactive: -0.164"}, {"sequence": "GCAUGCUGACACUUACUUUTT against Olfr878", "z-score": "inactive: -0.872"}, {"sequence": "GGACUUUCUCAAGGACAGATT against Wnt5a", "z-score": "inactive: -0.399"}, {"sequence": "GGUGUGCUAGAAGAUAUUATT against Actr10", "z-score": "inactive: -0.488"}, {"sequence": "GGCAAAGCUUAUGGAAAGCTT against 9130221H12Rik", "z-score": "inactive: 0.554"}, {"sequence": "GCUGAGCUCAGAACAUCUATT against Muc5b", "z-score": "inactive: 0.357"}, {"sequence": "CCAGAAGCCAUUAACUAUGTT against Lck", "z-score": "inactive: -0.479"}, {"sequence": "CGUGGGUAGAUCCACAUUUTT against Tnip3", "z-score": "inactive: 1.59"}, {"sequence": "GGUGGAUUUCUAUGUUCAATT against Fblim1", "z-score": "inactive: 0.391"}, {"sequence": "GGUCCUGCGCUUAUUUGAGTT against Pah", "z-score": "inactive: 1.05"}, {"sequence": "CGAUUCCUUUGUAACGAAATT against Aldh5a1", "z-score": "inactive: 1.04"}, {"sequence": "GGAUGACAUGAGCAUCAGUTT against Fdft1", "z-score": "inactive: -0.366"}, {"sequence": "GCCAAAAGUCUCAGACUGATT against Hscb", "z-score": "inactive: -0.976"}, {"sequence": "GGAAUUCUGCUUCAUGGAUTT against Cdc42ep4", "z-score": "inactive: 0.209"}, {"sequence": "GGAAAAGUUGAUUUCUCUATT against Olfr453", "z-score": "inactive: 0.437"}, {"sequence": "GAGUACCAGCUGUUGUUCATT against Olfr392", "z-score": "active: 4.22"}, {"sequence": "CCAAGCCAAGCAAUCUUGATT against Chat", "z-score": "inactive: -0.247"}, {"sequence": "GGAGCUAAUAAUGGUCAAATT against Prrt3", "z-score": "inactive: 0.92"}, {"sequence": "CCCUAAGUUCUCGUUUCUGTT against Cherp", "z-score": "inactive: 0.765"}, {"sequence": "GGAAUUCGGGAAAUUGGUCTT against Aasdh", "z-score": "inactive: 0.33"}, {"sequence": "GGACCUACGUGUAUGUGCUTT against Nudt3", "z-score": "inactive: -0.673"}, {"sequence": "GCUAUGUGGACGUGACCUATT against Chrnb4", "z-score": "inactive: -0.739"}, {"sequence": "GGAUGACUAUUUCAGAAACTT against Spock1", "z-score": "inactive: -0.605"}, {"sequence": "GAGAGCGGAGAGAUCAAAGTT against Iltifb", "z-score": "inactive: 0.108"}, {"sequence": "GGGCUUCAUCAACUAUCUUTT against Spint1", "z-score": "inactive: 1.03"}, {"sequence": "CGGCUUACCAGUCCUGUUUTT against Adgra2", "z-score": "inactive: 0.609"}, {"sequence": "GGACCAAGAUUGGUUUCAGTT against Fbxo45", "z-score": "inactive: 0.118"}, {"sequence": "GGUGCUUCCAGAAUCUUUATT against Epha5", "z-score": "inactive: 0.517"}, {"sequence": "CCUGGUGAUUAGUACUUUATT against Grpel1", "z-score": "inactive: 1.51"}, {"sequence": "GGAUUUGUUUUCACCAAGATT against Dmd", "z-score": "inactive: 0.3"}, {"sequence": "GGUGAUGCCUGUGAAGACATT against Il3ra", "z-score": "active: 2.04"}, {"sequence": "GGCUAGAAGAUAAAGAUGATT against Tmpo", "z-score": "inactive: 0.535"}, {"sequence": "GGUUAAAGAAGCCAUGAAATT against Olfr480", "z-score": "inactive: -0.883"}, {"sequence": "GCGUGUUGUGAUGUCACCUTT against Cisd1", "z-score": "inactive: -0.0193"}, {"sequence": "CCCUUAGUGAACUUCUGUUTT against Tubb2a", "z-score": "inactive: 0.697"}, {"sequence": "GCUUAUCAGGAAAUACAGGTT against Fam168b", "z-score": "inactive: 0.527"}, {"sequence": "GCAUGGUAUUAGGUUUUUUTT against Rab10", "z-score": "inactive: 1.61"}, {"sequence": "GGAUCAGAAAUCAUCAAGCTT against Tsg-5", "z-score": "inactive: -1.92"}, {"sequence": "GGGACUUAAGGUUAGACACTT against E330018D03Rik", "z-score": "inactive: 0.163"}, {"sequence": "GGAUGAAAGGCGGAUACUUTT against Etv4", "z-score": "inactive: 0.4"}, {"sequence": "GGUUUUUCUCUUGUGAUUUTT against Vegfc", "z-score": "inactive: -0.677"}, {"sequence": "GCAGUCUUUCUAAACAUAUTT against Bend7", "z-score": "inactive: -0.449"}, {"sequence": "CGUUUGCACUACUCGUAACTT against Nrbf2", "z-score": "inactive: 0.0013"}, {"sequence": "GGCCUUUACGUCUUCCUAGTT against Zdhhc12", "z-score": "inactive: -1.19"}, {"sequence": "CCCUCUGCUCUAUGUGGUCTT against Olfr1040", "z-score": "inactive: -0.195"}, {"sequence": "GCACUGACACUGUUUAUCGTT against Sync", "z-score": "inactive: -1.63"}, {"sequence": "GGAUUCAGAAAUCUGGAAATT against Nmnat3", "z-score": "inactive: -0.199"}, {"sequence": "GGACUUGCAUACCUUGAUCTT against Dcn", "z-score": "inactive: 0.809"}, {"sequence": "GGAACAUGUCUCCUGAUCUTT against Add3", "z-score": "inactive: -1.07"}, {"sequence": "GGGAUGAAUACACUUGUUGTT against Cox5a", "z-score": "inactive: -0.206"}, {"sequence": "GGUCUCAUUAUGACAGUGATT against Orc2", "z-score": "inactive: 0.209"}, {"sequence": "GGCAUCUAUAUCAUCAAAUTT against Pde6a", "z-score": "inactive: 0.54"}, {"sequence": "GGCCAAUCAGAUAACUAAATT against Cep57", "z-score": "inactive: 0.542"}, {"sequence": "GCUCCAGACGAUGGUUGAATT against Ppp1r1a", "z-score": "inactive: 0.106"}, {"sequence": "GGAAUGGAAAUUCAGAGAGTT against Igfn1", "z-score": "inactive: -0.394"}, {"sequence": "GGUAACUGGUGUCAUUUAATT against Zfp474", "z-score": "inactive: 0.619"}, {"sequence": "GGCUUGGUGACAGGACUAUTT against Spidr", "z-score": "inactive: 0.803"}, {"sequence": "GGUUUUCCAUCUCCUCCAGTT against Klrc1", "z-score": "inactive: 0.789"}, {"sequence": "GGAAACUGUCACAGAUUUUTT against Rgl3", "z-score": "inactive: -0.133"}, {"sequence": "GGAUGCAGUAGAAAUGCUGTT against Ank", "z-score": "inactive: 0.314"}, {"sequence": "GCUCUCGAGAGCCAAAGAATT against Bach2os", "z-score": "inactive: 0.961"}, {"sequence": "GGGAUGACUCGAGAUGAUGTT against Hax1", "z-score": "inactive: 0.188"}, {"sequence": "GGAUCAUGUGUGAAAUCCUTT against Hars2", "z-score": "inactive: 0.981"}, {"sequence": "GGAAGACCAUUGUUGUUAATT against Has2", "z-score": "inactive: -0.0614"}, {"sequence": "CCACAGUUUGACCUAAUAGTT against Srgn", "z-score": "inactive: -0.381"}, {"sequence": "GGCUAUUCUCAAGGUGUUATT against Olfr568", "z-score": "inactive: -0.593"}, {"sequence": "GCUAGAUGCUCGGAUCCAGTT against Ei24", "z-score": "inactive: -0.873"}, {"sequence": "GGCUGUUAGAGGAAGAGAUTT against Ube3b", "z-score": "inactive: 1.64"}, {"sequence": "GGAAAUAACAGGCUUUUUGTT against Egfr", "z-score": "inactive: 0.659"}, {"sequence": "GCAGAAUGGUAAAUCCGAUTT against Mc5r", "z-score": "inactive: 0.137"}, {"sequence": "GGUAGUGUUCAUUGAGGAATT against Oas1d", "z-score": "inactive: -0.282"}, {"sequence": "CGUUUGAUACCAAAGAUUUTT against Onecut3", "z-score": "inactive: -1.12"}, {"sequence": "GGCACAUACGCUAUGAAGCTT against Prl2c5", "z-score": "inactive: -0.0959"}, {"sequence": "GGAGAAAAGGGUGCUGAAGTT against Ybx3", "z-score": "active: 2.85"}, {"sequence": "CCCGUAUGGAUGUGGUAACTT against Tmem239", "z-score": "inactive: -1.39"}, {"sequence": "GCACCGGGAUUUGGUGCAATT against Tut1", "z-score": "inactive: 0.937"}, {"sequence": "GCCUGUACAGACUACGCAGTT against Ifi27l2a", "z-score": "inactive: 0.0257"}, {"sequence": "GGGAAAAUCAAACAAAACCTT against Tfap4", "z-score": "inactive: -0.998"}, {"sequence": "GGUUUCAUCAAAGUGCAUUTT against Rassf5", "z-score": "inactive: -0.648"}, {"sequence": "GGUUGUCUCUCAGUAUUCATT against Cct4", "z-score": "inactive: -0.722"}, {"sequence": "GGAUAGCAUCCAUUACUUCTT against Lrrc75b", "z-score": "inactive: -1.21"}, {"sequence": "GGUUGUGUUGGAGGUUAAGTT against Snta1", "z-score": "inactive: 0.721"}, {"sequence": "GGAAUCUAUGAACAUGUUUTT against Pcdh12", "z-score": "inactive: -0.433"}, {"sequence": "GGCUCGAUUACUGAGUACATT against Bnip2", "z-score": "inactive: 0.884"}, {"sequence": "GGUAGAAUGUGUGAUACCCTT against Rogdi", "z-score": "inactive: 0.205"}]}]}
